Measured values taken from patent US20240400677A1.

Target: cynomolgus monkey SIRPβ1-His monomer protein (cynomolgus monkey)
Assay: BLI Octet, captured scFv PPE, cyno SIRP

| binding | Binder |
| --- | --- |
| binds | Antibody 13 (scFv, V domains shown) VH: EVQLLESGGGLVQPGGSLRLSCAASGFTFSNSDMNWVRQAPGKGLEWVSYISSSGNTIYYADSVKGRFTISRDNSKNTLYLQMNSLRAEDTAVYYCARSNWNYPLDYYYMDVWGKGTTVTVSS VL: DIVMTQSPLSLPVTPGEPASISCRSSQSLLHSNGYNYLDWYLQKPGQSPQLLIYAASSLQSGVPDRFSGSGSGTDFTLKISRVEAEDVGVYYCMQGTHWPPTFGQGTKVEIK |
| binds | Antibody 37 (scFv, V domains shown) VH: QVQLVQSGAEVKKPGASVKVSCKASGYTLNNYDINWVRQAPGQGLEWMGWISGYNGNTNYAQKLQGRVTMTRDTSTSTVYMELSSLRSEDTAVYYCARVGSSWEENDQWGQGTLVTVSS VL: DIQMTQSPSSLSASVGDRVTITCRASQSISRWLAWYQQKPGKAPKLLIYAASSLESGVPSRFSGSGSGTDFTLTISSLQPEDFATYYCQQTHSFPLTFGGGTKVEIK |

No constants are given. Whether binding was seen depends on the method and setting. A result given as binding can be weak or reduced; the word gives no strength.
